Reference: paper PMC8440931, “Physical and Functional Interaction of Mitochondrial Single-Stranded DNA-Binding Protein and the Catalytic Subunit of DNA Polymerase Gamma” (Frontiers in Genetics, 2021)
No constants are given. Whether binding was seen depends on the method and setting.

Biological target: T1, biotinylated mitochondrial single-stranded DNA-binding protein (BTN-mtSSB), wild type (human) (UniProt Q04837)
T1 sequence (chain, biotin (conjugated; site not stated)): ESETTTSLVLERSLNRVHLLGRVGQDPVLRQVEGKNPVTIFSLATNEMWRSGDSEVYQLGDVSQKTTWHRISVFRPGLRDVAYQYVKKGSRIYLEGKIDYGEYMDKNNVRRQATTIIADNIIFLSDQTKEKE
Assay: BLI; BTN-mtSSB on streptavidin sensors; 120 nM Pol γα alone, replaced by, or preincubated with 120 nM Pol γβ2; both purified

## dimeric accessory subunit of mitochondrial DNA polymerase gamma (Pol γβ2) (human)
  binding: no binding (tested: 120nM)
